Experimental data from PubChem BioAssay AID996 (National Center for Advancing Translational Sciences (NCATS), 2007).
The other results are listed elsewhere or left out. The source made no clear call on entries shown without one.

Molecular target: Caspase-1 (Homo sapiens) (UniProt P29466)
Assay: Concentration-Response Counterscreen for Redox Active Inhibitors of Caspase-1: Summary
Details: caspase-1 enzyme activity, redox counterscreen (DTT/Cys/catalase); at 57.5 µM (top of the series)
From the text: NIH Molecular Libraries Screening Centers Network [MLSCN]
NIH Chemical Genomics Center [NCGC]
PI Name: Dr. James Wells,
Dr. Enrique Perez-Paya, Dr.Janice Williams, Dr. Dennis Wolan, a person
The caspases (Cysteine Aspartyl Protease) comprise a related family of 14 dimeric proteases that are critical mediators of apoptosis (programmed cell death) and inflammation. The caspases represent an important class of drug targets for stroke, ischemia, cancer and inflammatory diseases. […] One goal of this project was to identify compounds that act as allosteric inhibitors via stabilizing the procaspase form of the enzyme. Previous work in Well's laboratory has shown that such allosteric inhibitors can be identified and these act by binding at the dimer interface of enzyme (Hardy, Lam et al., 2004).
The biochemical assay was configured using purified caspase 1 at a high enzyme concentration to promote formation of the homodimers and thus facilitate the identification of allosteric inhibitors. The overall goal was to identify reversible inhibitors with better drug-like properties than the currently available set of aspartyl-containing peptidomimetics that covalently bind the active site. […] After initiation of the assay with substrate the plates were rapidly read using an automated robotic system (Kalypsys, Inc.) to maintain consistent timing. […] Product formation was also measured after 1 hour. […]

Compound | activity change, negative = inhibition [%]
COc1ccc2c(c1)Cc1sc(NC(=O)c3cccs3)nc1-2 | -47.7
CC(=O)[C@@H]1[C@@H]2C(=O)N(c3ccc(F)c(Cl)c3)C(=O)[C@@H]2C2c3ccccc3C=CN21 (some centres not stated) | -75.7
